We go through 15 substances from patent publication US11957716B2 (Immatics Biotechnologies GmbH, priority 2021, dated 2024).

This data set concerns HLA molecules from shock-frozen tissue samples. In words: Identification and relative quantitation of tumor associated peptides presented on the cell surface by LC-MS (XPRESIDENT). More on the design: species or system human. Conditions: all indications on which the peptide was identified at least once, independent of the HLA typing of the sample or the antibody used.

As to “202 (KLLLLSSVK; listed as Homo sapiens) [compound 202]”, the “Peptide presentation on cancer types” value is recorded as “GC, GBC, HCC, NSCLC, PACA”.

“203 (AILVPQPPK; listed as Homo sapiens) [compound 203]”: the “Peptide presentation on cancer types” value is reported as “BRCA, CCC, CRC, GC, HCC, HNSCC, NHL, NSCLC, OC, OSCAR, SCLC”.

For the substance “204 (VVRASSGLK; listed as Homo sapiens) [compound 204]”, the “Peptide presentation on cancer types” value is given as “AML, CLL, CRC, GBM, HCC, NSCLC, PACA, PRCA, RCC”.

In the case of “205 (SLIPIVPFKS; listed as Homo sapiens) [compound 205]”, the “Peptide presentation on cancer types” value is “CLL, NHL”.

With “206 (VEGVHFVQLL; listed as Homo sapiens) [compound 206]”, the “Peptide presentation on cancer types” value was “CLL, HCC, NHL, OSCAR”.

Regarding “207 (LPALLRSL; listed as Homo sapiens) [compound 207]”, the “Peptide presentation on cancer types” value is reported as “BRCA, CLL, CRC, NSCLC”.

Turning to “208 (YVGPTRLEL; listed as Homo sapiens) [compound 208]”, the “Peptide presentation on cancer types” value is listed as “BRCA, CLL, GBM, MEL, NSCLC”.

As to “209 (AILLPQLPK; listed as Homo sapiens) [compound 209]”, the “Peptide presentation on cancer types” value was “BRCA, CCC, HCC, GC, NSCLC, OSCAR, PACA, PRCA, RCC, SCLC, UTC”.

Consider “210 (ASRIQVILL; listed as Homo sapiens) [compound 210]”, for which the “Peptide presentation on cancer types” value is “BRCA, NSCLC, PRCA, SCLC, UTC”.

Turning to “211 (VVTIVMHIYK; listed as Homo sapiens) [compound 211]”, the “Peptide presentation on cancer types” value was “AML, CCC, BRCA, MEL”.

On to “212 (WETRLHNLW; listed as Homo sapiens) [compound 212]”, for which the “Peptide presentation on cancer types” value is “AML, BRCA, CLL, CRC, GC, HCC, HNSCC, MEL, NHL, NSCLC, OSCAR, PA; CA, PRCA, RCC, SCLC”.

For the substance “213 (TLLSFKTVLFK; listed as Homo sapiens) [compound 213]”, the “Peptide presentation on cancer types” value is on record as “AML, CRC, MEL, NHL, NSCLC, UEC”.

With “214 (RPSPVRVAAL; listed as Homo sapiens) [compound 214]”, the “Peptide presentation on cancer types” value is reported as “AML, BRCA, CRC, GBC, GC, MEL, NHL, NSCLC, OSCAR, PACA, RCC, UBC, UEC”.

As for “215 (TPLTRTTL; listed as Homo sapiens) [compound 215]”, the “Peptide presentation on cancer types” value is “CCC, CRC, GBM, MEL, NSCLC, OC, PACA, UBC”.

Take “216 (ILRTVLPSL; listed as Homo sapiens) [compound 216]”: the “Peptide presentation on cancer types” value is recorded as “AML, HCC, HNSCC, NHL, NSCLC, OC, OSCAR, RCC, UEC”.
